# Values from PubChem BioAssay AID1053208 (Peter MacCallum Cancer Centre, 2014).
# Assay: 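Find knock-downs that sensitise mouse osteosarcoma cells to doxorubicin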 (primary screen)
# System: mouse osteosarcoma cells, early-passage culture from an engineered mouse model of fibroblastic bone tumour
# Reagents: siRNA pool against mouse genes, 40 nM
# Duration: about 120 h (48 h before drug, then 72 h with drug)
# Challenge: doxorubicin 100 nM for 72 h, roughly 30-40% inhibitory dose
# Measured: 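Viability read as ATP luminescence after 72 h of 100 nM doxorubicin or none, duplicate wells averaged, scaled to non-targeting siRNA, then expressed as robust z-scores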
# Direction: viability z-score with doxorubicin: higher = more viable cells under doxorubicin; viability z-score without drug: higher = more viable cells with knock-down alone
# Hit rule: 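Called active if knock-down leaves viability unchanged without drug (z within -2 to 2) but lowers it with doxorubicin (z at or under -2)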
# This is one part, drawn at random, of about 17,000 deposited reagents. Of all reagents, 788 (4.7%) were called active. 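Calls rest on z-score classes alone; an extra cut-off of viability at most 70% of control was not applied to them.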 Not all columns of the deposit are shown.
Gene,PubChem SID,combined z-score class,viability z-score with doxorubicin,viability z-score without drug,Call
"Gng13 (guanine nucleotide binding protein (G protein), gamma 13)",SID152277241,no change with or without drug,-0.11,0.17,inactive
"Bpifb3 (BPI fold containing family B, member 3)",SID152326557,no change with or without drug,-0.79,-0.34,inactive
Magea6 (MAGE family member A6),SID152290751,low cell count with doxorubicin only,-4.05,-1.18,active
Ubxn2b (UBX domain protein 2B),SID152259438,no change with or without drug,1.24,-0.17,inactive
Cog1 (component of oligomeric golgi complex 1),SID152293480,no change with or without drug,0.9,1.35,inactive
Yy1 (YY1 transcription factor),SID152308806,low cell count with doxorubicin only,-2.47,-1.69,active
"Bcat1 (branched chain aminotransferase 1, cytosolic)",SID152260811,no change with or without drug,1.57,0.51,inactive
"Tnfrsf1a (tumor necrosis factor receptor superfamily, member 1a)",SID152305622,low cell count with doxorubicin only,-3.15,-1.69,active
TEX10,SID152302730,low cell count with doxorubicin only,-4.16,-0.51,active
"Tnk1 (tyrosine kinase, non-receptor, 1)",SID152291562,no change with or without drug,1.69,0.51,inactive
Nrg3 (neuregulin 3),SID152332115,no change with or without drug,0.9,-1.85,inactive
Zfp235 (zinc finger protein 235),SID152306146,no change with or without drug,0.67,0.84,inactive
2310057M21Rik (RIKEN cDNA 2310057M21 gene),SID152330216,no change with or without drug,-1.24,0.51,inactive
Bambi (BMP and activin membrane-bound inhibitor),SID152277666,no change with or without drug,-1.12,-0.17,inactive
Wnt11 (WNT family member 11),SID152277184,no change with or without drug,-1.12,0.34,inactive
"Kcnu1 (potassium channel, subfamily U, member 1)",SID152265031,no change with or without drug,-1.35,-1.52,inactive
"Tbxas1 (thromboxane A synthase 1, platelet)",SID152271038,no change with or without drug,0.45,1.35,inactive
"Tlx1 (T cell leukemia, homeobox 1)",SID152337637,no change with or without drug,-1.8,-1.52,inactive
Amy2a5 (amylase 2a5),SID152324597,no change with or without drug,0.45,0.17,inactive
Htr6 (5-hydroxytryptamine (serotonin) receptor 6),SID152309487,no change with or without drug,0.67,-1.69,inactive

Sorted by “viability z-score with doxorubicin” (lowest first): some entries from above
Gene,PubChem SID,combined z-score class,viability z-score with doxorubicin,viability z-score without drug,Call
TEX10,SID152302730,low cell count with doxorubicin only,-4.16,-0.51,active
Nrg3 (neuregulin 3),SID152332115,no change with or without drug,0.9,-1.85,inactive
"Tnk1 (tyrosine kinase, non-receptor, 1)",SID152291562,no change with or without drug,1.69,0.51,inactive
